# Measurements: the supplement of paper PMC7238544
# Where a name gives a salt, the structure may show the parent alone. ± gives the standard deviation of the averaged measurements. This is one part of the list. The data scatter; read single values as rough.
# Key:
# hAMSC donor 1 [1] = test: Hoechst total cell count ratio vs vehicle control; higher = more cells (less toxicity)
# hAMSC donor 2 [2] = test: as above
# hAMSC donor 1 [3] = test: transgenic luciferase activity (RLU/mg protein) fold change vs vehicle control (ratio); higher = more transgene expression
# hAMSC donor 2 [4] = test: as above
# hAMSC donor 1 [5] = test: transfection efficiency (EGFP+ cells / Hoechst count) fold change vs vehicle control (ratio); hAMSC are human adipose-derived mesenchymal stem cells given an EGFP-luciferase plasmid by lipofection; higher = enhanced transfection
# hAMSC donor 2 [6] = test: as above
# [7] = priming compound concentration 0.2 µM
# [8] = priming compound concentration 1.7 µM
# [9] = priming compound concentration 13 µM
SMILES,Hoechst total cell count ratio (hAMSC donor 1 [1]; [7]),Hoechst total cell count ratio (hAMSC donor 1 [1]; [8]),Hoechst total cell count ratio (hAMSC donor 1 [1]; [9]),Hoechst total cell count ratio (hAMSC donor 2 [2]; [7]),Hoechst total cell count ratio (hAMSC donor 2 [2]; [8]),Hoechst total cell count ratio (hAMSC donor 2 [2]; [9]),transgenic luciferase activity (hAMSC donor 1 [3]; [7]),transgenic luciferase activity (hAMSC donor 2 [4]; [7]),transfection efficiency (hAMSC donor 1 [5]; [7]),transfection efficiency (hAMSC donor 1 [5]; [8]),transfection efficiency (hAMSC donor 1 [5]; [9]),transfection efficiency (hAMSC donor 2 [6]; [7]),transfection efficiency (hAMSC donor 2 [6]; [8]),transfection efficiency (hAMSC donor 2 [6]; [9]),transgenic luciferase activity (hAMSC donor 1 [3]; [8]),transgenic luciferase activity (hAMSC donor 2 [4]; [9]),transgenic luciferase activity (hAMSC donor 1 [3]; [9]),transgenic luciferase activity (hAMSC donor 2 [4]; [8])
COc1ccc2[nH]cc(CCN)c2c1 [5-Methoxytryptamine],1.26 ± 0.044,1.3 ± 0.095,1.4 ± 0.19,1.1 ± 0.17,1.19 ± 0.031,1.01 ± 0.19,0.779 ± 0.81,0.663 ± 0.061,1.32 ± 0.2,1.17 ± 0.2,1.38 ± 0.18,1.05 ± 0.2,0.928 ± 0.066,1.24 ± 0.084,,,,
COc1ccc2[nH]cc(C3=CCNCC3)c2c1,1.44 ± 0.097,1.33 ± 0.082,1.46 ± 0.018,0.595 ± 0.094,1.17 ± 0.11,1.04 ± 0.11,,,1.49 ± 0.38,2.13 ± 0.36,,1.49 ± 0.24,1.59 ± 0.11,,1.06 ± 0.76,,,
COc1cc([C@@H]2c3cc4c(cc3[C@H](O)[C@H]3COC(=O)[C@H]23)OCO4)cc(OC)c1OC [Podofilox],1.25 ± 0.15,0.673 ± 0.053,0.73 ± 0.067,0.791 ± 0.051,0.738 ± 0.075,0.775 ± 0.25,,,0.77 ± 0.18,0.55 ± 0.13,0.622 ± 0.042,0.8 ± 0.15,0.769 ± 0.095,0.766 ± 0.23,0.356 ± 0.096,,,
CN1[C@@H]2C[C@@H](OC(=O)[C@H](CO)c3ccccc3)C[C@H]1[C@@H]1O[C@@H]12 [Scopolamine hydrobromide],1.07 ± 0.093,1.22 ± 0.15,1.31 ± 0.12,0.861 ± 0.12,1.03 ± 0.16,0.994 ± 0.036,,,0.917 ± 0.11,0.873 ± 0.087,0.998 ± 0.19,1.41 ± 0.17,1.21 ± 0.015,1.33 ± 0.19,,0.525 ± 0.055,,
c1ccc2c3c([nH]c2c1)CNCC3 [Tryptoline],1.34 ± 0.05,1.44 ± 0.23,1.28 ± 0.076,0.818 ± 0.14,1.09 ± 0.052,1.26 ± 0.038,0.581 ± 0.45,,0.856 ± 0.11,1.23 ± 0.32,0.918 ± 0.048,1.32 ± 0.021,1.05 ± 0.061,0.895 ± 0.12,,,,
CN1C(=O)COc2c(C(=O)NC3CN4CCC3CC4)cc(Cl)cc21 (centres undefined) [Azasetron hydrochloride],1.26 ± 0.037,1.19 ± 0.2,1.02 ± 0.13,1.22 ± 0.23,1.06 ± 0.054,1.26 ± 0.059,0.932 ± 0.16,,1.03 ± 0.05,0.993 ± 0.33,1.17 ± 0.27,1.02 ± 0.12,1.1 ± 0.12,1.1 ± 0.24,,,,
Cc1ncc2n1-c1ccc(Cl)cc1C(c1ccccc1F)=NC2 [Midazolam hydrochloride],1.35 ± 0.042,1.57 ± 0.049,1.38 ± 0.062,0.923 ± 0.061,1.05 ± 0.072,1.04 ± 0.14,0.898 ± 0.27,,0.891 ± 0.098,0.943 ± 0.21,1.07 ± 0.29,1.21 ± 0.19,1.14 ± 0.02,1.11 ± 0.26,,,,
COc1cc2c(cc1OC)[C@@]13CCN4CC5=CCO[C@H]6CC(=O)N2[C@H]1[C@H]6[C@H]5C[C@H]43 [Brucine],1.333 ± 0.0021,1.31 ± 0.1,1.33 ± 0.036,1.21 ± 0.24,1.23 ± 0.036,1.3 ± 0.25,,,1.06 ± 0.036,1.52 ± 0.52,0.714 ± 0.28,0.891 ± 0.25,1.14 ± 0.072,0.694 ± 0.14,,,0.729 ± 0.5,
OC1CCCCC1N1CCC(c2ccccc2)CC1 (racemic) [(+/-)-Vesamicol hydrochloride],1.38 ± 0.11,1.62 ± 0.031,1.29 ± 0.07,1 ± 0.34,1.11 ± 0.077,1.27 ± 0.3,0.91 ± 0.57,,0.942 ± 0.28,0.72 ± 0.37,0.849 ± 0.23,1.15 ± 0.39,0.949 ± 0.034,0.732 ± 0.18,,,,
CC(C)[C@]12O[C@H]1[C@@H]1O[C@]13[C@]1(O[C@H]1C[C@H]1C4=C(CC[C@@]13C)C(=O)OC4)[C@@H]2O [Triptolide],0.639 ± 0.025,0.42 ± 0.088,0.428 ± 0.053,0.318 ± 0.067,0.322 ± 0.061,0.198 ± 0.008,,,0.35 ± 0.025,0.273 ± 0.16,0.127 ± 0.092,0.781 ± 0.32,0.284 ± 0.19,0.0734 ± 0.1,,0.00467 ± 0.0049,,
C[C@]12CCC(=O)C=C1CC[C@@H]1[C@@H]2CC[C@@]2(C)[C@H]1CC[C@]2(C)O [Methyltestosterone],1.34 ± 0.29,1.21 ± 0.12,1.22 ± 0.14,1.26 ± 0.41,1.64 ± 0.2,1.13 ± 0.33,,,1.06 ± 0.2,1.19 ± 0.29,0.826 ± 0.26,1.05 ± 0.21,1 ± 0.079,1 ± 0.43,,,0.594 ± 0.19,
Oc1ccc2c3c1O[C@H]1c4[nH]c5ccccc5c4C[C@@]4(O)[C@@H](C2)N(CC2CC2)CC[C@]314 [Naltrindole hydrochloride hydrate],1.12 ± 0.15,1.44 ± 0.085,1.27 ± 0.2,0.847 ± 0.074,1.11 ± 0.1,0.898 ± 0.17,,,0.879 ± 0.12,0.885 ± 0.34,0.658 ± 0.14,1.11 ± 0.19,1.14 ± 0.12,0.999 ± 0.081,,0.494 ± 0.083,,
COc1ccc(C(CN(C)C)C2(O)CCCCC2)cc1 (centres undefined) [Venlafaxine hydrochloride],1.34 ± 0.1,1.35 ± 0.21,1.43 ± 0.053,1.1 ± 0.044,1.23 ± 0.056,1.42 ± 0.23,,,1.01 ± 0.23,1.25 ± 0.2,1.09 ± 0.19,1.18 ± 0.063,1.03 ± 0.065,1.35 ± 0.1,,,,0.58 ± 0.36
CCN(C(C)=O)c1cccc(-c2ccnc3c(C#N)cnn23)c1 [Zaleplon],1.33 ± 0.12,1.19 ± 0.12,1.3 ± 0.071,1.13 ± 0.27,1.23 ± 0.055,1.32 ± 0.12,,,0.867 ± 0.12,0.973 ± 0.36,0.625 ± 0.23,1.19 ± 0.23,0.987 ± 0.22,0.908 ± 0.1,,,0.642 ± 0.29,
c1cncc([C@@H]2CCCN2)c1 [Nornicotine],1.58 ± 0.24,1.46 ± 0.084,1.31 ± 0.18,1.36 ± 0.21,1.23 ± 0.1,1.29 ± 0.19,,,1.09 ± 0.22,0.872 ± 0.18,0.966 ± 0.35,0.971 ± 0.055,1.14 ± 0.11,1.23 ± 0.26,,,1 ± 0.31,

# At a glance, some entries already given:
SMILES,Hoechst total cell count ratio (hAMSC donor 1 [1]; [7]),Hoechst total cell count ratio (hAMSC donor 1 [1]; [8]),Hoechst total cell count ratio (hAMSC donor 1 [1]; [9]),Hoechst total cell count ratio (hAMSC donor 2 [2]; [7]),Hoechst total cell count ratio (hAMSC donor 2 [2]; [8]),Hoechst total cell count ratio (hAMSC donor 2 [2]; [9]),transgenic luciferase activity (hAMSC donor 1 [3]; [7]),transgenic luciferase activity (hAMSC donor 2 [4]; [7]),transfection efficiency (hAMSC donor 1 [5]; [7]),transfection efficiency (hAMSC donor 1 [5]; [8]),transfection efficiency (hAMSC donor 1 [5]; [9]),transfection efficiency (hAMSC donor 2 [6]; [7]),transfection efficiency (hAMSC donor 2 [6]; [8]),transfection efficiency (hAMSC donor 2 [6]; [9]),transgenic luciferase activity (hAMSC donor 1 [3]; [8]),transgenic luciferase activity (hAMSC donor 2 [4]; [9]),transgenic luciferase activity (hAMSC donor 1 [3]; [9]),transgenic luciferase activity (hAMSC donor 2 [4]; [8])
CN1C(=O)COc2c(C(=O)NC3CN4CCC3CC4)cc(Cl)cc21 (centres undefined) [Azasetron hydrochloride],1.26 ± 0.037,1.19 ± 0.2,1.02 ± 0.13,1.22 ± 0.23,1.06 ± 0.054,1.26 ± 0.059,0.932 ± 0.16,,1.03 ± 0.05,0.993 ± 0.33,1.17 ± 0.27,1.02 ± 0.12,1.1 ± 0.12,1.1 ± 0.24,,,,
Cc1ncc2n1-c1ccc(Cl)cc1C(c1ccccc1F)=NC2 [Midazolam hydrochloride],1.35 ± 0.042,1.57 ± 0.049,1.38 ± 0.062,0.923 ± 0.061,1.05 ± 0.072,1.04 ± 0.14,0.898 ± 0.27,,0.891 ± 0.098,0.943 ± 0.21,1.07 ± 0.29,1.21 ± 0.19,1.14 ± 0.02,1.11 ± 0.26,,,,
